We go through 2 substances from paper PMC12441857, “Cannabinoid CB1 Receptor Activation Mitigates N‑Methyl‑D‑aspartate Receptor-Mediated Neurotoxicity” (ACS Pharmacology & Translational Science, 2025).

Sequences of proteins named here, by UniProt entry; tags and fusion partners are left off.
UniProt P21554: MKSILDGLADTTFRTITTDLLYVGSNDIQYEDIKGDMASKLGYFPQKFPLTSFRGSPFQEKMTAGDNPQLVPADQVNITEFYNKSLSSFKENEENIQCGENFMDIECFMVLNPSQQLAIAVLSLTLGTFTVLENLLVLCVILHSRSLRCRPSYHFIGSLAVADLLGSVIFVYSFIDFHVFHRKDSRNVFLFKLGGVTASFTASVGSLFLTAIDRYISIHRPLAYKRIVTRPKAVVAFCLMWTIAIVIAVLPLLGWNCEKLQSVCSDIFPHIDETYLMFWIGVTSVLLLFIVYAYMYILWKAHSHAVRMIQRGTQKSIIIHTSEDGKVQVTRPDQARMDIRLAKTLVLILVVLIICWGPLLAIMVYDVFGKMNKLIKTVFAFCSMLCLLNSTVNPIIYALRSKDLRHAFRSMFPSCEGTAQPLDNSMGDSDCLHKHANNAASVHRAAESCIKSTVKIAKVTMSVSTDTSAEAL
UniProt P32121: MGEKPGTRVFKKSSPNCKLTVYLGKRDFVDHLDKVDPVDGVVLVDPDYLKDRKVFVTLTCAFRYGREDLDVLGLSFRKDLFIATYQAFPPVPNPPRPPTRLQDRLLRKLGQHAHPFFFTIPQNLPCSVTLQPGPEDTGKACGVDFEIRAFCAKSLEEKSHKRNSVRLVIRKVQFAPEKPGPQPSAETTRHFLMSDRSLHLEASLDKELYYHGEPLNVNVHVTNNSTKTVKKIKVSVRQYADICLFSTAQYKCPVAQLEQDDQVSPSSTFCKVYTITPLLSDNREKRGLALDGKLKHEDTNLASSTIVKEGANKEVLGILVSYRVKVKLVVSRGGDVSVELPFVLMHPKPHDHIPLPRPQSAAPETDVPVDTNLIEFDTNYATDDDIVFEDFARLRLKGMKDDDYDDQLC

The target in test [1] is N1 subunit of the NMDA receptor, endogenous in mouse primary cells (mouse (endogenous in primary microglia and neurons)) (UniProt P35438). Nature of the test: proximity ligation; Duolink II in situ PLA on fixed, permeabilised mouse primary microglia with rat monoclonal anti-N1 and rabbit polyclonal anti-CB1R; naive/resting cells, cells activated with 1 uM LPS and 200 U/mL IFN-gamma, and naive/resting cells from APPSw/Ind mice.

Test [2] shares this target. Nature of the test: proximity ligation; Duolink II in situ PLA on fixed, permeabilised mouse primary cortical and hippocampal neurons with rat monoclonal anti-N1 and rabbit polyclonal anti-CB1R; untreated, treated with Abeta1-42 oligomers (500 nM, 48 h), and neurons from APPSw/Ind mice.
The target of test [3] is cannabinoid CB1 receptor fused to YFP (CB1R-YFP) (human) (UniProt P21554). Nature of the test: FRET or BRET; ß-arrestin-2 recruitment BRET in HEK-293T cells 48 h after transfection with CB1R-YFP, N1, N2B and ß-arrestin-2-Rluc; antagonists (SR141617 or MK-801) 10 min, then agonists (ACEA and/or NMDA) or vehicle, coelenterazine H. For orientation: BRET reads energy transfer from a luciferase to a nearby fluorophore.

Results are given in words; binding and its absence hold for the method and conditions named. In cells and extracts the contact can be indirect. Some binding calls cover weakened binding; strength is not graded here.

“cannabinoid CB1 receptor, endogenous in mouse primary cells (from UniProt P47746 1-473)”: the binding result in test [1] and in test [2] was “binds” each time. Take “ß-arrestin-2 fused to Rluc (ß-arrestin-2-Rluc) (from UniProt P32121 1-409)”: the binding result in test [3] is given as “binds”.
